Measured values published in publication PMC7066179.
No constants are given. Whether binding was seen depends on the method and setting. In cells and extracts the contact can be indirect. Here binding means that the protein was enriched with, or labelled near, the bait; the list need not be complete.

Key:
[1] = target: BR-FLAG, over-expressed in HEK293T (human) (UniProt Q69YU5); assay: affinity purification with mass spectrometry; mitochondria of HEK293T over-expressing BR-FLAG (untagged BR as control) solubilized in IP buffer with 1% DDM; anti-FLAG M2 resin overnight, elution with 0.1% Rapigest; TMT-labelled LC/MS
[2] = target: BRAWNIN (endogenous, HEK293T mitochondria) (human (endogenous in HEK293T)) (UniProt Q69YU5); assay: affinity purification with mass spectrometry; HEK293T mitochondria solubilized in IP buffer (150 mM NaCl, 1 mM EDTA, 50 mM HEPES-KOH pH 7.4) with 1% DDM; BR antibody (Novus NBP1-90536) or rabbit IgG control overnight, protein A/G beads, washes with 0.5% DDM, elution with 0.1% Rapigest; TMT-labelled LC/MS; endogenous or over-expressed untagged BR as bait
[3] = target: BRAWNIN, untagged, over-expressed in HEK293T (human) (UniProt Q69YU5); assay: as above

Measured: binding

B1: GHITM (endogenous, HEK293T mitochondria) (protein, UniProt Q9H3K2 46-345)
chain: ATKTRIGIRRGRTGQELKEAALEPSMEKIFKIDQMGRWFVAGGAAVGLGALCYYGLGLSNEIGAIEKAVIWPQYVKDRIHSTYMYLAGSIGLTALSAIAISRTPVLMNFMMRGSWVTIGVTFAAMVGAGMLVRSIPYDQSPGPKHLAWLLHSGVMGAVVAPLTILGGPLLIRAAWYTAGIVGGLSTVAMCAPSEKFLNMGAPLGVGLGLVFVSSLGSMFLPPTTVAGATLYSVAMYGGLVLFSMFLLYDTQKVIKRAEVSPMYGVQKYDPINSMLSIYMDTLNIFMRVATMLATGGNRKK
binds: all assays above
